Binding data for 7 molecules are collected here from article PMC4493597.

Test [1] concerns the target T1, GST-BBS-5 (C. elegans) (C. elegans) (UniProt Q21626).
T1 sequence: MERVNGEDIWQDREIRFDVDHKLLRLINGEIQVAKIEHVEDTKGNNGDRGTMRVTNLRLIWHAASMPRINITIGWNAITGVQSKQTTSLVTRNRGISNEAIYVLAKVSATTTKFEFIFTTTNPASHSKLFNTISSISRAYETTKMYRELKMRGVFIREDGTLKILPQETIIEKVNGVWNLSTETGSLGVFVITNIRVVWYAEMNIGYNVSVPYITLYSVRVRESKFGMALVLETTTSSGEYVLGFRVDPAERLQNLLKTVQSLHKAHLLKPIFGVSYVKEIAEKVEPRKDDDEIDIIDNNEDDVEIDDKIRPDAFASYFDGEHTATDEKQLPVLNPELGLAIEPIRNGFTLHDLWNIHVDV
The experiment in a line: pull-down; purified GST-BBS-5 (worm) immobilised on Glutathione-Sepharose beads, incubated with MBP-BBS-4 variants 4 hours at 4 °C; 20 mM Tris-HCl pH 7.4, 150 mM KCl, 5 mM MgCl2, 0.5% Triton X-100, 2 mM β-mercaptoethanol; blot with anti-MBP; whether the MBP proteins were purified is not told.

The target in test [2] is T2, GST fused human BBS5 (human) (UniProt Q8N3I7).
T2 sequence: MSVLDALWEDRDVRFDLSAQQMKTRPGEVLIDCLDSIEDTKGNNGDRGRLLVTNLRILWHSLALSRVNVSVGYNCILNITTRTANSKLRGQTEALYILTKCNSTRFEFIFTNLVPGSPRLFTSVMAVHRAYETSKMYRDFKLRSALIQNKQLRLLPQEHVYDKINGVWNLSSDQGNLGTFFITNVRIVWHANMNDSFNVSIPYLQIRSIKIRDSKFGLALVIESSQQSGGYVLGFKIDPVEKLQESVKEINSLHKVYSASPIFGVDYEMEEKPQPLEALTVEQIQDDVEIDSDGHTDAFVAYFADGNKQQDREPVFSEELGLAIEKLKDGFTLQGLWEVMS
The experiment in a line: pull-down; human proteins; GST fusion on Glutathione-Sepharose beads incubated with MBP fusion, same binding buffer, five washes; blot with anti-MBP; whether the MBP protein was purified is not told.

For test [3], the target named is T3, BBS-5 in the BiFC vector VC155 (C. elegans) (C. elegans) (UniProt Q21626).
T3 sequence: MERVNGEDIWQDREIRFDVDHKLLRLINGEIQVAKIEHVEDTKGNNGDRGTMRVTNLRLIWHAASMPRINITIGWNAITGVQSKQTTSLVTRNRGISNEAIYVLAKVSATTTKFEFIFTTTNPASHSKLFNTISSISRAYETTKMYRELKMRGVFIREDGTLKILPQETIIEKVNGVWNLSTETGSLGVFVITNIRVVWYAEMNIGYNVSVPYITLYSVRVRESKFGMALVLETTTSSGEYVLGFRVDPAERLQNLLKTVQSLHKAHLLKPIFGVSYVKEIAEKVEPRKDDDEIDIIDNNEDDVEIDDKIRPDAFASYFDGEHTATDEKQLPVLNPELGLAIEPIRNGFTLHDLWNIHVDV
The experiment in a line: split reporter; Venus-based BiFC in living worm cilia; BBS-4 in VN173, BBS-5 in VC155, arl-13 promoter.

In test [4] the target is T4, Flag-tagged BBS4 wild type (human) (UniProt Q96RK4).
T4 sequence: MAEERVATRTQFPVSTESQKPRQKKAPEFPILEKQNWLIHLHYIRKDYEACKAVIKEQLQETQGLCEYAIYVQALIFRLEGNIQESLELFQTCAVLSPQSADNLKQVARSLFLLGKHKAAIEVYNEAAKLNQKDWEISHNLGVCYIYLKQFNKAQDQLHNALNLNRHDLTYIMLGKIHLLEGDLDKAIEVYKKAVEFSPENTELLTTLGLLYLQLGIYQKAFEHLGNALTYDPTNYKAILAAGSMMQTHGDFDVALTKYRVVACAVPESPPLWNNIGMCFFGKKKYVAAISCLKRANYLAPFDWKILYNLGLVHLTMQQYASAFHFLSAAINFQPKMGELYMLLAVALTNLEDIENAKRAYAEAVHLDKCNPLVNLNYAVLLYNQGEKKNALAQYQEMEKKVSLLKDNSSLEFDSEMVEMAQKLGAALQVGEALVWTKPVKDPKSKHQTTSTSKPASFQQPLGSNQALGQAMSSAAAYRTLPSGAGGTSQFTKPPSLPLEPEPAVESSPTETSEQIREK
The experiment in a line: co-IP; HEK293T co-transfected with Myc-BBS5 and Flag-BBS4; lysate in IP buffer (20 mM Hepes-KOH pH 7.2, 150 mM NaCl, 0.5% NP-40) precipitated with anti-Flag (M2), blot with anti-Myc.

No constants are given. Whether binding was seen depends on the method and setting. Binding seen in cells or lysates may run through a third protein. Some entries that bind do so weakly or less than the wild type. Sequences can lack the tags named with a protein.

B1: MBP-BBS-4 carboxyl-terminus (C-Term, a.a. 270-462; C. elegans) (domain or fragment, UniProt Q5CZ52 270-462)
chain: ILTIGSIMQNHSDHDVALNKYRVAADVSDYNGCLWNNIGIGLLARNKPAASHSALKKAAFINPLNYKISYNLGVLHDIMNLHCSALHYIKLCTELYPQNAKAVGAMAVILSHMNDDKNARLAYKKSIELKKNPSTILNYAIFEYRMKDVTAASNALKLYKDLQASGVKCSANNKETANLLESVLKQPDQSAEQ
As for B1, the binding entry in test [1] is reported as “binds”.

B2: MBP fused human BBS4 (protein, UniProt Q96RK4 1-519)
chain: MAEERVATRTQFPVSTESQKPRQKKAPEFPILEKQNWLIHLHYIRKDYEACKAVIKEQLQETQGLCEYAIYVQALIFRLEGNIQESLELFQTCAVLSPQSADNLKQVARSLFLLGKHKAAIEVYNEAAKLNQKDWEISHNLGVCYIYLKQFNKAQDQLHNALNLNRHDLTYIMLGKIHLLEGDLDKAIEVYKKAVEFSPENTELLTTLGLLYLQLGIYQKAFEHLGNALTYDPTNYKAILAAGSMMQTHGDFDVALTKYRVVACAVPESPPLWNNIGMCFFGKKKYVAAISCLKRANYLAPFDWKILYNLGLVHLTMQQYASAFHFLSAAINFQPKMGELYMLLAVALTNLEDIENAKRAYAEAVHLDKCNPLVNLNYAVLLYNQGEKKNALAQYQEMEKKVSLLKDNSSLEFDSEMVEMAQKLGAALQVGEALVWTKPVKDPKSKHQTTSTSKPASFQQPLGSNQALGQAMSSAAAYRTLPSGAGGTSQFTKPPSLPLEPEPAVESSPTETSEQIREK
For B2, in test [2], the binding result is on record as “binds”.

B3: MBP-BBS-4 WT (C. elegans) (protein, UniProt Q5CZ52 1-462)
chain: MEASNQDEIIGTDVIPNEQDNPEEVVPEPTSLDVPPPPPERAPSAPKRVEILDCNSLNGLMYHYFAQGDYIECKSIIGEIQSKYLERNEAAFHVRGLIARNEGELEEAMECFHKAYELSGKNKRYFYETGRCNFLLGRHQIAVEQLTKASEVMKDNPKVWYWLARAIYHFPAEKVQGKTFNPVESARTILMKPDIAKDATLICFLGRLCEELGDTSGAIAAYKSSLKLQPDNTEVMNLLGLIYLRTGQVQEGFVQLGNCLAYDPANSQAILTIGSIMQNHSDHDVALNKYRVAADVSDYNGCLWNNIGIGLLARNKPAASHSALKKAAFINPLNYKISYNLGVLHDIMNLHCSALHYIKLCTELYPQNAKAVGAMAVILSHMNDDKNARLAYKKSIELKKNPSTILNYAIFEYRMKDVTAASNALKLYKDLQASGVKCSANNKETANLLESVLKQPDQSAEQ
Consider B3, for which, in test [1], the binding result is given as “binds”.

B4: BBS-4 E107Q, BiFC-tagged (C. elegans) (protein, UniProt Q5CZ52 1-462)
chain: MEASNQDEIIGTDVIPNEQDNPEEVVPEPTSLDVPPPPPERAPSAPKRVEILDCNSLNGLMYHYFAQGDYIECKSIIGEIQSKYLERNEAAFHVRGLIARNEGELEQAMECFHKAYELSGKNKRYFYETGRCNFLLGRHQIAVEQLTKASEVMKDNPKVWYWLARAIYHFPAEKVQGKTFNPVESARTILMKPDIAKDATLICFLGRLCEELGDTSGAIAAYKSSLKLQPDNTEVMNLLGLIYLRTGQVQEGFVQLGNCLAYDPANSQAILTIGSIMQNHSDHDVALNKYRVAADVSDYNGCLWNNIGIGLLARNKPAASHSALKKAAFINPLNYKISYNLGVLHDIMNLHCSALHYIKLCTELYPQNAKAVGAMAVILSHMNDDKNARLAYKKSIELKKNPSTILNYAIFEYRMKDVTAASNALKLYKDLQASGVKCSANNKETANLLESVLKQPDQSAEQ
In the case of B4, in test [3], the binding entry was “binds”.

B5: BBS-4 in the BiFC vector VN173 (C. elegans) (protein, UniProt Q5CZ52 1-462)
chain: MEASNQDEIIGTDVIPNEQDNPEEVVPEPTSLDVPPPPPERAPSAPKRVEILDCNSLNGLMYHYFAQGDYIECKSIIGEIQSKYLERNEAAFHVRGLIARNEGELEEAMECFHKAYELSGKNKRYFYETGRCNFLLGRHQIAVEQLTKASEVMKDNPKVWYWLARAIYHFPAEKVQGKTFNPVESARTILMKPDIAKDATLICFLGRLCEELGDTSGAIAAYKSSLKLQPDNTEVMNLLGLIYLRTGQVQEGFVQLGNCLAYDPANSQAILTIGSIMQNHSDHDVALNKYRVAADVSDYNGCLWNNIGIGLLARNKPAASHSALKKAAFINPLNYKISYNLGVLHDIMNLHCSALHYIKLCTELYPQNAKAVGAMAVILSHMNDDKNARLAYKKSIELKKNPSTILNYAIFEYRMKDVTAASNALKLYKDLQASGVKCSANNKETANLLESVLKQPDQSAEQ
As to B5, the binding result in test [3] is recorded as “binds”.

B6: MBP-BBS-4 E107Q (C. elegans) (protein, UniProt Q5CZ52 1-462)
chain: MEASNQDEIIGTDVIPNEQDNPEEVVPEPTSLDVPPPPPERAPSAPKRVEILDCNSLNGLMYHYFAQGDYIECKSIIGEIQSKYLERNEAAFHVRGLIARNEGELEQAMECFHKAYELSGKNKRYFYETGRCNFLLGRHQIAVEQLTKASEVMKDNPKVWYWLARAIYHFPAEKVQGKTFNPVESARTILMKPDIAKDATLICFLGRLCEELGDTSGAIAAYKSSLKLQPDNTEVMNLLGLIYLRTGQVQEGFVQLGNCLAYDPANSQAILTIGSIMQNHSDHDVALNKYRVAADVSDYNGCLWNNIGIGLLARNKPAASHSALKKAAFINPLNYKISYNLGVLHDIMNLHCSALHYIKLCTELYPQNAKAVGAMAVILSHMNDDKNARLAYKKSIELKKNPSTILNYAIFEYRMKDVTAASNALKLYKDLQASGVKCSANNKETANLLESVLKQPDQSAEQ
Consider B6, for which the binding entry in test [1] is listed as “binds”.

B7: Myc-tagged BBS5 (protein, UniProt Q8N3I7 1-341)
chain: MSVLDALWEDRDVRFDLSAQQMKTRPGEVLIDCLDSIEDTKGNNGDRGRLLVTNLRILWHSLALSRVNVSVGYNCILNITTRTANSKLRGQTEALYILTKCNSTRFEFIFTNLVPGSPRLFTSVMAVHRAYETSKMYRDFKLRSALIQNKQLRLLPQEHVYDKINGVWNLSSDQGNLGTFFITNVRIVWHANMNDSFNVSIPYLQIRSIKIRDSKFGLALVIESSQQSGGYVLGFKIDPVEKLQESVKEINSLHKVYSASPIFGVDYEMEEKPQPLEALTVEQIQDDVEIDSDGHTDAFVAYFADGNKQQDREPVFSEELGLAIEKLKDGFTLQGLWEVMS
As for B7, the binding result in test [4] is recorded as “binds”.
